# Measured values as given in the supplement of paper PMC7666118.
# The chains behind the UniProt entries cited, without tags or fusion partners.
# UniProt P54709, whole entry: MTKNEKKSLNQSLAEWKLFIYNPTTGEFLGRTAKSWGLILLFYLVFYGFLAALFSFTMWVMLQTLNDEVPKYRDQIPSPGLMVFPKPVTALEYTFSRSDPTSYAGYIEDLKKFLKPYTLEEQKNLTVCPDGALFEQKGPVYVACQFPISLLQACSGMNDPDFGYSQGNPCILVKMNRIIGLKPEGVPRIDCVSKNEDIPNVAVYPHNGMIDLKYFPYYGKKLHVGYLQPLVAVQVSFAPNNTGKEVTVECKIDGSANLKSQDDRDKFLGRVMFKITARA
# Some of the results follow.
# Target: ATP1B3 (UniProt P54709)
# Test: dose-dependent thermal stabilisation call (2D-TPP, DLPTP, 10% FDR) (binary (1 = stabilised)); higher = stabilised by the compound
# Conditions: system: HL-60 intact cells; concentration range 0.04-10 µM
# Method: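 2D thermal proteome profiling in intact HL-60 cells treated with BRD-3811 (0, 0.04, 0.29, 2, 10 uM) for 90 min at 37 C, then heated 3 min at one of 12 temperatures (42-63.9 C). Soluble protein was quantified by TMT10 MS. The value is the DLPTP call of the paper: dose-dependent thermal stabilisation over all temperatures at 10% FDR (F-test of a dose-response against a flat model); one experiment, one call per tested protein.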
row,Structure (SMILES),dose-dependent thermal stabilisation call
1,COc1ccc(Cn2ccc3cc(C)c(C(=O)NO)cc32)cc1,inactive: 0
